Data as given in PubChem BioAssay AID1224827 (NIAID, 2016).
Shown is one part, drawn at random, of about 3,800 deposited reagents. Over the whole deposit, about 2,200 (57%) got an active call. 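Active means a strong reporter change in either direction; calls are per siRNA, not per gene; qiagen siRNAs gave weaker effects.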 Entries without a mark were called inactive. The numbers tell different reagents against one gene apart.

- Assay: 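Identify regulators of the macrophage TNF-alpha response to bacterial LPS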 (follow-up of hits)
- Cell system: RAW264.7 G9 mouse macrophage reporter clone
- Reagent: single siRNA against mouse genes, 100 nM siRNA
- Timing: siRNA for 2 days, then LPS about 16 h
- Challenge: bacterial lipopolysaccharide (LPS), 10 ng/ml, cells fixed after overnight (about 16 h) stimulation
- Detection: 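Imaged nuclear TNF reporter intensity, background removed, scaled per plate and to non-targeting control wells, as z-scores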
- Direction: TNF reporter z-score, mean and TNF reporter z-score: higher = stronger Tnf promoter reporter signal; gene median z, three same-vendor siRNAs: higher = stronger Tnf reporter signal for the gene
- Active means: 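An siRNA is called active when its mean z-score over replicates is at least +2 or at most -2; control wells get no call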

gene	reagent no.	TNF reporter z-score, mean	gene median z, three same-vendor siRNAs	TNF reporter z-score, repeat 1	TNF reporter z-score, repeat 2
Ogt	1	-2.16 (active)	-3.61	-3.62	-0.693
Ogt	2	-3.57 (active)	-3.61	-3.51	-3.62
Ogt	3	-3.8 (active)	-3.61	-3.6	-4
Ogt	4	0.307	-0.221	1.22	-0.605
Ogt	5	-0.164	-0.221	1.35	-1.67
Ogt	6	-0.475	-0.221	0.163	-1.11
Sugp2	1	-3.07 (active)	-3.07	-3.21	-2.94
Sugp2	2	-3.08 (active)	-3.07	-3.77	-2.39
Sugp2	3	-3.33 (active)	-3.07	-4.56	-2.1
Sugp2	4	6.5 (active)	2.6	10.2	2.83
Sugp2	5	5.15 (active)	2.6	7.92	2.37
Sugp2	6	-2.58 (active)	2.6	-2.33	-2.83
Or2t47	1	8.69 (active)	3.49	4.32	13.1
Or2t47	2	7.63 (active)	3.49	2.67	12.6
Or2t47	3	-2.61 (active)	3.49	-2.18	-3.04
Or2t47	4	2.89 (active)	0.103	5.49	0.297
Or2t47	5	2.51 (active)	0.103	5.12	-0.0915
Or2t47	6	-3.45 (active)	0.103	-3.9	-3
Ren2	1	-0.33	-2.11	-0.277	-0.382
Ren2	2	-2.35 (active)	-2.11	-1.4	-3.3
Ren2	3	-3.15 (active)	-2.11	-3.49	-2.82
Ren2	4	3.5 (active)	0.491	6.18	0.812
Ren2	5	2.92 (active)	0.491	6.56	-0.722
Ren2	6	-0.207	0.491	0.171	-0.585
Sv2a	1	1.28	-0.602	-0.85	3.42
Sv2a	2	0.488	-0.602	-0.355	1.33
Sv2a	3	-4.77 (active)	-0.602	-4.92	-4.63
Sv2a	4	2.52 (active)	2.45	4.24	0.793
Sv2a	5	2.24 (active)	2.45	4.11	0.358
Sv2a	6	1.97	2.45	4.24	-0.299
Vamp1	1	-0.806	-4.16	-0.943	-0.668
Vamp1	2	-4.16 (active)	-4.16	-4.2	-4.11
Vamp1	3	-5.08 (active)	-4.16	-5.2	-4.96
Vamp1	4	1.45	0.247	2.49	0.404
Vamp1	5	-0.329	0.247	-0.748	0.0893
Vamp1	6	-0.0644	0.247	0.831	-0.96
Dnajb4	1	4.46 (active)	0.0216	4.2	4.72
Dnajb4	2	0.0216	0.0216	-1.61	1.65
Dnajb4	3	-3.04 (active)	0.0216	-2.94	-3.14
Dnajb4	4	2.9 (active)	1.3	5.31	0.495
Dnajb4	5	0.993	1.3	2.76	-0.778
Dnajb4	6	0.797	1.3	2.1	-0.502
Cyth2	1	0.637	-3.2	1.11	0.166
Cyth2	2	-3.28 (active)	-3.2	-3.24	-3.31
Cyth2	3	-3.42 (active)	-3.2	-3.68	-3.15
Cyth2	4	1.11	-1.38	2.54	-0.329
Cyth2	5	-1.68	-1.38	-2.4	-0.971
Cyth2	6	-2.36 (active)	-1.38	-1.8	-2.92
Prpf39	1	-3.28 (active)	-4.06	-3.93	-2.63
Prpf39	2	-4.1 (active)	-4.06	-4.68	-3.51
Prpf39	3	-4.6 (active)	-4.06	-5.02	-4.18
Prpf39	4	1.81	0.87	2.79	0.825
Prpf39	5	1.18	0.87	1.44	0.916
Prpf39	6	-0.307	0.87	-0.672	0.0581
Eif6	1	3.83 (active)	-1.73	2.24	5.41
Eif6	2	-1.73	-1.73	-1.88	-1.58
Eif6	3	-3.14 (active)	-1.73	-3.31	-2.97

5 of these entries, set out differently:
Ren2 #4 — TNF reporter z-score, mean: 3.5 (active); gene median z, three same-vendor siRNAs: 0.491; TNF reporter z-score, repeat 1: 6.18; TNF reporter z-score, repeat 2: 0.812
Ren2 #5 — TNF reporter z-score, mean: 2.92 (active); gene median z, three same-vendor siRNAs: 0.491; TNF reporter z-score, repeat 1: 6.56; TNF reporter z-score, repeat 2: -0.722
Ren2 #6 — TNF reporter z-score, mean: -0.207; gene median z, three same-vendor siRNAs: 0.491; TNF reporter z-score, repeat 1: 0.171; TNF reporter z-score, repeat 2: -0.585
Sv2a #1 — TNF reporter z-score, mean: 1.28; gene median z, three same-vendor siRNAs: -0.602; TNF reporter z-score, repeat 1: -0.85; TNF reporter z-score, repeat 2: 3.42
Sv2a #2 — TNF reporter z-score, mean: 0.488; gene median z, three same-vendor siRNAs: -0.602; TNF reporter z-score, repeat 1: -0.355; TNF reporter z-score, repeat 2: 1.33
